# Source: PubChem BioAssay AID720710 (VTT Finland, 2013)
# Test: 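siRNAs sensitising CCNE1-overexpressing U-2 OS cells to replication stress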 (primary screen)
# System: human U-2 OS bone cancer cells, parental and a cyclin E (CCNE1) overexpressing line
# Knock-down reagent: single siRNA against human genes, 1 µM siRNA in the printed spot mix
# Time to read-out: 67 h
# Treatment: half the arrays: hydroxyurea 2 mM for 16 h, then 3 h recovery; other arrays untreated
# Detection: 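EdU click signal imaged per DAPI-stained nucleus at 67 h; each spot divided by its subgrid median, then z-scored relative to non-targeting control spots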
# Direction: EdU z-score, cyclin E line, hydroxyurea and EdU z-score, parental, hydroxyurea and EdU z-score, cyclin E line, untreated: higher = more DNA synthesis than non-targeting controls
# This is one part, drawn at random, of about 1,380 reagents. 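One array per condition without replicates; hydroxyurea arrays received 2 mM for 16 h plus 3 h recovery.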 The numbers tell different reagents against one gene apart. Further read-outs or replicates are left out here.
gene,reagent,"EdU z-score, cyclin E line, hydroxyurea","EdU z-score, parental, hydroxyurea","EdU z-score, cyclin E line, untreated"
SOX21 (SRY-box transcription factor 21),1,-1.05,-3.87,-1.57
SOX21 (SRY-box transcription factor 21),2,-0.604,-0.199,-1.41
PINX1 (PIN2 (TERF1) interacting telomerase inhibitor 1),1,-0.748,-1.75,1.29
PINX1 (PIN2 (TERF1) interacting telomerase inhibitor 1),2,-0.333,-0.141,1.82
LOC652826,1,-0.124,-0.477,-0.649
LOC652826,2,2.1,0.0593,0.127
PPP2R1A (protein phosphatase 2 scaffold subunit Aalpha),1,-1.77,-0.819,-3.09
PPP2R1A (protein phosphatase 2 scaffold subunit Aalpha),2,-1.31,0.238,0.537
CRY1 (cryptochrome circadian regulator 1),1,-0.603,-2.05,-2.19
CRY1 (cryptochrome circadian regulator 1),2,1.2,-0.462,-0.585
FAM120B (family with sequence similarity 120 member B),1,-0.479,-1.13,-4.13
FAM120B (family with sequence similarity 120 member B),2,0.399,2.43,-0.804
DDX11 (DEAD/H-box helicase 11),1,-1.44,-2.52,-0.386
DDX11 (DEAD/H-box helicase 11),2,0.203,0.322,-0.0963
NFIX (nuclear factor I X),1,-1.64,-4.57,-2.34
NFIX (nuclear factor I X),2,-0.339,-0.853,-1.31
GML (glycosylphosphatidylinositol anchored molecule like),1,-1.08,0.339,-0.812
GML (glycosylphosphatidylinositol anchored molecule like),2,0.868,2.37,-0.501
TRANK1 (tetratricopeptide repeat and ankyrin repeat containing 1),1,-2.97,-0.121,-1.26
TRANK1 (tetratricopeptide repeat and ankyrin repeat containing 1),2,-0.391,2.17,-0.729
GLI1 (GLI family zinc finger 1),1,-0.728,-0.316,-2.03
GLI1 (GLI family zinc finger 1),2,1.1,1.58,0.533
DMC1 (DNA meiotic recombinase 1),1,-1.07,1.09,-2.16
DMC1 (DNA meiotic recombinase 1),2,0.0326,3.56,-0.462

Just “EdU z-score, parental, hydroxyurea”, for 8 of the entries above:
SOX21 (SRY-box transcription factor 21) #1	-3.87
SOX21 (SRY-box transcription factor 21) #2	-0.199
PINX1 (PIN2 (TERF1) interacting telomerase inhibitor 1) #1	-1.75
PINX1 (PIN2 (TERF1) interacting telomerase inhibitor 1) #2	-0.141
LOC652826 #1	-0.477
LOC652826 #2	0.0593
PPP2R1A (protein phosphatase 2 scaffold subunit Aalpha) #1	-0.819
PPP2R1A (protein phosphatase 2 scaffold subunit Aalpha) #2	0.238

Next records follow:
gene,reagent,"EdU z-score, cyclin E line, hydroxyurea","EdU z-score, parental, hydroxyurea","EdU z-score, cyclin E line, untreated"
CCNE2 (cyclin E2),1,-0.122,-2.09,-3.38
CCNE2 (cyclin E2),2,0.797,-0.442,0.389
FANCF (FA complementation group F),1,-0.51,0.0065,-0.783
FANCF (FA complementation group F),2,0.27,1.79,-0.585
ATRX (ATRX chromatin remodeler),1,-2.08,-0.161,-0.611
ATRX (ATRX chromatin remodeler),2,0.0366,0.415,0.15
ORC6 (origin recognition complex subunit 6),1,-0.935,-3.27,-1.91
ORC6 (origin recognition complex subunit 6),2,-0.0277,0.707,0.287
SMARCA5 (SNF2 related chromatin remodeling ATPase 5),1,-2.26,1.78,-2.05
SMARCA5 (SNF2 related chromatin remodeling ATPase 5),2,-0.157,2.18,-0.487
REV1 (REV1 DNA directed polymerase),1,2.06,1.24,-2.51
REV1 (REV1 DNA directed polymerase),2,2.78,3.24,-1.83
TREX2 (three prime repair exonuclease 2),1,-1.17,-2.66,-5.59
TREX2 (three prime repair exonuclease 2),2,-0.956,-0.354,-0.752
"RBBP4 (RB binding protein 4, chromatin remodeling factor)",1,-0.325,0.728,-1.06
"RBBP4 (RB binding protein 4, chromatin remodeling factor)",2,0.386,3.43,2.15
NOL8 (nucleolar protein 8),1,-1.68,-4.09,-2.01
NOL8 (nucleolar protein 8),2,-0.383,-0.561,-1.96
REPIN1 (replication initiator 1),1,0.383,-0.966,-0.453
REPIN1 (replication initiator 1),2,0.587,-0.771,0.363
MYO6 (myosin VI),1,-1.7,-0.825,-0.886
MYO6 (myosin VI),2,0.146,-0.0732,-0.44
BNIP3 (BCL2 interacting protein 3),1,-1.36,-2.77,-2.21
BNIP3 (BCL2 interacting protein 3),2,0.00699,-0.994,-0.132
SPHAR (retired record),1,0.522,1.8,-4.45
SPHAR (retired record),2,1.57,2.81,-0.307
PRKCG (protein kinase C gamma),1,-1.27,-7.01,-2.64
PRKCG (protein kinase C gamma),2,-0.648,-1.58,0.0443
XAB2 (XPA binding protein 2),1,1.24,-0.762,-1.18
XAB2 (XPA binding protein 2),2,2.26,0.0131,-0.707
RAD54L (RAD54 like),1,-1.89,0.897,-0.257
RAD54L (RAD54 like),2,-0.141,2.03,-0.0101
ZWINT (ZW10 interacting kinetochore protein),1,-0.493,-1.27,-5.39
ZWINT (ZW10 interacting kinetochore protein),2,0.591,-0.209,-0.0121
